Source: US20210087258A1 (UNIVERSITY OF TOKYO, published 2021)

Columns and labels:
Assay in all cases: ELISA, VP1 coated, anti-FLAG-HRP detection
[1] = target: VP1 derived from human norovirus GII.2 (MK04 strain) (human norovirus GII.2 (MK04 strain))
[2] = target: VP1 derived from human norovirus GII.6 (7K strain) (human norovirus GII.6 (7K strain))
[3] = target: VP1 derived from human norovirus GII.4 (Narita 104 strain) (human norovirus GII.4 (Narita 104 strain))
[4] = target: VP1 derived from human norovirus GII.4 (Saga 1 strain) (human norovirus GII.4 (Saga 1 strain))

Measured: binding

B1: KVP-7F10 (VHH)
VHH: EVQLVESGGGLVQAGGSLRLSCLASGSISSINTMAWYRQAPGKQRELVASISSGGGTNYADSVKGRFTISTDNAKNTVYLQMNSLESEDTAVYFCNLHNFSPISPPRSYWGQGTQVTVSS
binds: [1] | [2] | [3] | [4]

B2: KVP-7B8 (VHH)
VHH: EVQLVESGGGLVQAGGSLRLSCAASGSTFSINGVAWYRQAPGKQRELVGGISRSGWTNYADSVKGRFTISSDNAKNTVYLQMNSLKPEDTAVYYCNVNLHSGLGNVKNYWGQGTQVTVSS
binds: [1] | [2] | [3] | [4]

No constants are given. Whether binding was seen depends on the method and setting. A result given as binding can be weak or reduced; the word gives no strength.
